Experimental data reported in PubChem BioAssay AID504444 (National Center for Advancing Translational Sciences (NCATS), 2011).
Screen size: about 360,000 compounds; about 7,500 (2.1%) were called active. The shares of active, inactive and inconclusive entries below differ from those in the screen. Calls come from the whole dose curve; as a rule, active = well fitted inhibition curve with a large enough effect; inconclusive = small, poorly fitted or top-dose-only effect, or effect the other way; inactive = flat fitted curve, though single readings scatter. A potency beside an inconclusive call is a rough fit, not a confirmed value.

assay: Nrf2 qHTS screen for inhibitors; details: A549 ARE-Fluc reporter, luciferase luminescence, 18-24 h; series mostly up to 46 µM; note: nearly all actives have a fitted effect of over 60% in size
In short: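 Reporter: ARE-Fluc in A549. Exposure: 18-24 h, 37 °C, 5% CO2, 5% FBS OPTI-MEM. Readouts: fluorescent cytotoxicity (CellTiter-Fluor), then luminescent Nrf2 signal after BugLite.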
Potency is the fitted concentration of half-maximal effect.

SMILES | Potency
COCCNC(=S)N/N=C(\C)c1ccccc1O | inactive
Cc1ccccc1CN(C)CC(=O)NC(C)CCc1ccccc1 (centres undefined) | inconclusive: 29.1 µM [falling, single point]
Cc1nn(-c2ccccc2)c(Cl)c1C(=O)OC(C)C(=O)Nc1ccc2c(c1)OCO2 (centres undefined) | inactive
CC(=O)Nc1ccc(C(=O)N/N=C/c2cc(Br)cc(Br)c2O)cc1 | active: 14.6 µM
COc1cc(NS(C)(=O)=O)ccc1Nc1c2ccccc2nc2ccccc12 | inconclusive: 0.58 µM [falling, partial curve, poor fit]
Cc1cccc[n+]1CC(=O)Nc1ccc([N+](=O)[O-])cc1 | inconclusive: 18.4 µM [falling, single point]
CC(C)(C)c1cc(NC(=O)Nc2ccccc2)no1 | inconclusive: 4.61 µM [activator, full curve]
Cc1cc(SCC(=O)Nc2cccc(S(=O)(=O)NC3=NCCCCC3)c2)nc2ccccc12 | inconclusive: 16.4 µM [falling, single point]
CS(=O)(=O)Nc1ccc(C2=NN(C(=O)C3CCCCC3)C(c3cccs3)C2)cc1 (centres undefined) | active: 23.1 µM
CCOC(=O)Cn1nc(C)c(NC(=O)COc2cccc(Cl)c2)c1C | inconclusive: 32.6 µM [falling, single point]
COc1ccc(-c2ccc3c(c2)C2CC3CCN2C(=O)OCc2ccccc2)cc1 (centres undefined) | inconclusive: 16.4 µM [activator, partial curve, poor fit]
S=C(NCC1CCCO1)N1CCN(c2ccc(Cl)c(Cl)c2)CC1 (centres undefined) | active: 14.6 µM
Cc1ccc(NC(=O)CNC(C)c2ccccc2)cc1 (centres undefined) | inconclusive: 20.6 µM [activator, partial curve, poor fit]
COc1ccc(NC(=S)Nc2cccc([N+](=O)[O-])c2)cc1 | inconclusive: 10.3 µM [falling, partial curve, poor fit]
CN1C(=O)C(C)(C)c2cc(S(=O)(=O)NCc3ccc(C(=O)Nc4ccc(Cl)cc4)cc3)ccc21 | active: 18.4 µM
Cc1cccc(NC(=O)N2CCC(CN3CCc4ccccc4C3)CC2)c1C | inconclusive: 20.6 µM [activator, partial curve, poor fit]
Fc1cccc(COc2ccccc2C(=S)N2CCCC2)c1 | inconclusive: 29.1 µM [activator, single point]
COc1ccc(NC(=O)C2CCCN(C(=O)Nc3ccc(OC)cc3)C2)cc1 (centres undefined) | inconclusive: 8.2 µM [activator, partial curve, poor fit]
N#Cc1ccc(OS(=O)(=O)c2ccc(-c3ccon3)s2)cc1 | inconclusive: 14.6 µM [falling, single point]
O=S(=O)(NCc1cccc(Br)c1)c1ccc(-c2cc(C(F)(F)F)on2)s1 | inconclusive: 25.9 µM [falling, single point]
COc1ccc(-c2csc(NC(=O)C3CCN(c4ncnc5sc(C)c(C)c45)CC3)n2)cc1OC | active: 4.11 µM
O=C(Cc1ccccc1)N1CCc2ccccc21 | inconclusive: 23.1 µM [activator, single point]

SMILES | Potency
COC(=O)CN1C(=O)CSc2ccc(S(=O)(=O)N3CCOCC3)cc21 | inconclusive: 16.4 µM [activator, partial curve, poor fit]
COc1ccc(C(=O)Nc2ccc3nc(SCC(=O)N4CCCc5ccccc54)sc3c2)cc1 | inconclusive: 9.2 µM [falling, partial curve, poor fit]
COc1ccc(CC(=O)Nc2oc(-c3ccccc3)c(-c3ccccc3)c2C#N)cc1OC | inconclusive: 13 µM [falling, partial curve, poor fit]
CCCCn1cc(S(=O)(=O)c2ccc(OC)cc2)c(=O)c2cc(F)c(N3CCCC3)cc21 | inconclusive: 16.4 µM [activator, single point]
CN(C)CC/C=C1\c2ccc(F)cc2Sc2cc(F)c(Cl)cc21 | inactive
CCOc1ccc(NC(=O)CSc2nccn2C)cc1 | inactive
COc1ccc(-c2nc(-c3cccnc3)no2)cc1OC | inconclusive: 29.1 µM [activator, single point]
Cc1ccc(S(=O)(=O)N2CCOC2CNC(=O)C(=O)NCCc2ccc(S(N)(=O)=O)cc2)cc1 (centres undefined) | inconclusive: 18.4 µM [falling, partial curve, poor fit]
COC(=O)Cc1cc(=O)[nH]c(/N=C(\N)Nc2ccccc2C)n1 | inconclusive: 0.82 µM [activator, full curve, poor fit]
Cc1cc(C)nc(SCc2nnc(SCC#N)n2-c2cccc(Cl)c2)n1 | inconclusive: 16.4 µM [falling, partial curve, poor fit]
CCn1c(CNC(=O)COc2ccc(C(C)C)cc2)nnc1SCC(=O)Nc1ccccc1 | inactive
CCS(=O)(=O)c1nc2ccccc2n1Cc1ccccn1 | inconclusive: 29.1 µM [falling, single point]
CC1(C)CC(n2c(NCCO)nc3c(c2=O)C2(CCCC2)Cc2ccccc2-3)CCO1 (centres undefined) | inconclusive: 18.4 µM [falling, partial curve, poor fit]
COc1ccc(/C=C/C(=O)O/N=C(\N)c2ccccc2)cc1OC | inconclusive: 0.461 µM [activator, full curve, poor fit]
O=C(Nc1ccccn1)c1ccccc1 | inconclusive: 7.31 µM [activator, partial curve]
Cc1cccc(C)c1OCc1nc2c3cnn(-c4cccc(F)c4)c3ncn2n1 | inactive
Cc1ccc(-n2ncc(C(=O)NCCN3CCc4ccccc4C3)c2C2CCN(C(=O)OC(C)(C)C)CC2)cc1 | inconclusive: 32.6 µM [falling, single point]
Cn1c2c(c(=O)[nH]c1=O)C(c1cccc(O)c1)C1=C(N2)c2ccccc2C1=O (centres undefined) | active: 8.2 µM
Cc1ccc(C2(c3noc(CN4CCC(c5ccncc5)CC4)n3)CCCC2)cc1 | inconclusive: 29.1 µM [falling, single point]
CCOc1cc(/C=N/O)ccc1OCC(=O)Nc1cccc(C)c1 | inactive
CN(C(=O)c1cccc(NC(=O)Cc2cccc(NC(=O)C3CCCN(C(=O)CCc4ccccc4)C3)c2)c1)C1CCC1 (centres undefined) | inconclusive: 29.1 µM [falling, single point]
O=C1NC(=Nc2cccc(Cl)c2)SC1Cc1cccc(Cl)c1Cl (centres undefined) | inconclusive: 18.4 µM [falling, partial curve, poor fit]

SMILES | Potency
CCN(CC)S(=O)(=O)c1cc(NC(=O)C(C)OC(=O)c2[nH]c(C)c(C(C)=O)c2C)ccc1C (centres undefined) | active: 11.6 µM
CC12CCC(=O)C=C1C(F)CC1C2C(O)CC2(C)C1CCC2(O)C(=O)CO (centres undefined) | active: 0.058 µM
CCN(Cc1cc2cc(C)ccc2[nH]c1=O)S(=O)(=O)c1ccccc1 | inconclusive: 10.3 µM [falling, partial curve, poor fit]
O=C(Nc1ccc(C(=O)N2CCCCC2)cc1)c1ccc(Br)cc1 | inconclusive: 16.4 µM [falling, partial curve, poor fit]
CCn1nc(C)cc1C(=O)N1CCCC(N(C)CCc2ccc(OC)c(OC)c2)C1 (centres undefined) | inconclusive: 29.1 µM [activator, partial curve, poor fit]
COc1ccc(CCC(=O)Nc2cc(Cl)ccc2OC)cc1 | inconclusive: 23.1 µM [falling, single point]
CC(=O)c1c(C)[nH]c(C(=O)CSc2nnc(C)s2)c1C | inconclusive: 1.16 µM [activator, full curve]
Cc1c(C)n(CCCN(C)C)c2ncnc(NCc3ccccc3)c12 | inconclusive: 20.6 µM [activator, single point]
Cc1ccc(-c2cc(C(=O)N/N=C/c3ccco3)[nH]n2)cc1 | inconclusive: 25.9 µM [falling, single point]
CCCn1c(=O)c(C(=O)NNC(=O)c2cccc([N+](=O)[O-])c2)c(O)c2ccccc21 | inconclusive: 18.4 µM [falling, single point]
CCOC(=O)c1cccc(NC(=O)CN2C(=O)CC(C)(C)Sc3ccccc32)c1 | inconclusive: 20.6 µM [falling, partial curve]
O=C(O)c1cc(-c2c[nH]c3ccccc23)nc2ccc3ccccc3c12 | inconclusive: 16.4 µM [activator, partial curve, poor fit]
CCOC(=O)c1cnc(SCC(C)C)nc1N | inconclusive: 1.03 µM [activator, full curve]
COc1ccc(-c2nn(-c3ccccc3)cc2CO)cc1 | inconclusive: 18.4 µM [activator, partial curve, poor fit]
COC(c1ccc(Cl)cc1)(c1ccc(Cl)cc1)C(Oc1nc(C)cc(C)n1)C(=O)O (centres undefined) | inconclusive: 11.6 µM [falling, partial curve, poor fit]
O=C1C(=O)N(C2CCN(S(=O)(=O)c3ccc(F)cc3)CC2)CCN1Cc1ccccc1 | inconclusive: 20.6 µM [falling, single point]
O=C(CSc1ncn[nH]1)Nc1nc(-c2cccc([N+](=O)[O-])c2)cs1 | inconclusive: 8.2 µM [falling, partial curve]
CCOc1ccc(CC(=O)N/N=C/c2cccnc2)cc1 | inactive
Cc1cc2nc(-c3ccc(SCC(=O)N4CCc5ccccc54)nc3)[nH]c2cc1C | inconclusive: 1.84 µM [activator, full curve]
Cc1cc(C)c(C#N)c(SCC(=O)C(C)(C)C)n1 | inconclusive: 4.61 µM [activator, full curve, poor fit]

A portion from further up, for reference:
SMILES | Potency
COc1ccc(CCC(=O)Nc2cc(Cl)ccc2OC)cc1 | inconclusive: 23.1 µM [falling, single point]
CC(=O)c1c(C)[nH]c(C(=O)CSc2nnc(C)s2)c1C | inconclusive: 1.16 µM [activator, full curve]
Cc1c(C)n(CCCN(C)C)c2ncnc(NCc3ccccc3)c12 | inconclusive: 20.6 µM [activator, single point]
